From US20240010681A1, “PEPTIDES AND METHODS OF USE” (REALTA LIFE SCIENCES, INC., priority 2020, published 2024)

Test: in vivo
Settings: male, Wistar, rat, 160 mg/ml in 5 microliters

CC[C@H](C)[C@H](N)C(=O)N[C@@H](C)C(=O)N[C@@H](CC(C)C)C(=O)N[C@H](C(=O)N[C@@H](CC(C)C)C(=O)N[C@@H](CCC(=O)O)C(=O)N1CCC[C@H]1C(=O)N[C@H](C(=O)N[C@@H](CS)C(=O)N[C@@H](CS)C(=O)N[C@@H](CCC(N)=O)C(=O)N[C@@H](CCC(=O)O)C(=O)N[C@@H](CCCNC(=N)N)C(=O)N[C@@H](C)C(=O)N[C@@H](C)C(=O)NCCOCCOCCOCCOCCOCCOCCOCCOCCOCCOCCOCCOCCOCCOCCOCCOCCOCCOCCOCCOCCOCCOCCOCCOCCC(=O)O)[C@@H](C)CC)[C@@H](C)CC [RLS-0071]
level at 24 h: 120 µg/mL
